Values from PubChem BioAssay AID1259327 (Drosophila RNAi Screening Center, 2017).
Aim: 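Knock-downs altering cellular ATP with no metal added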. System: Drosophila S2R+ cells. Reagents: long dsRNA against Drosophila genes. Duration: 5 days (water added on day 4, read one day later). Conditions: water added as vehicle, no metal, one day before read-out. Measurement: 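Luciferase ATP signal per well, normalised to plate mean, duplicate average converted to z-score across plates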. Direction: ATP z-score: higher = more total ATP than typical wells; ATP luminescence: higher = more total ATP. Call rule: 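Called active when the ATP z-score exceeds 1.5 or falls below -1.5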. Calls: active = hit: ATP up or down; inactive = no clear ATP change.
Shown is an unselected part of about 3,100 deposited reagents. 378 of them (12%) count as active. 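Hits include both directions; z-score sign shows ATP rise or fall; raw luminescence values are not plate-normalised.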 A number with no mark means an inactive call. The record does not give: the amount of reagent.

Knock-down of Or85d (Odorant receptor 85d) [DRSC16767] gave: ATP z-score, duplicate mean -0.241; ATP luminescence, replicate 1 (RLU) = 2.62e5; ATP luminescence, replicate 2 (RLU) = 8.03e5. Or85d (Odorant receptor 85d) [DRSC26656] showed ATP z-score, duplicate mean 2.72 (active); ATP luminescence, replicate 1 (RLU) = 9.07e5; ATP luminescence, replicate 2 (RLU) = 1.04e6. GPHR (Golgi pH Regulator) [DRSC07075] scored ATP z-score, duplicate mean 1.95 (active); ATP luminescence, replicate 1 (RLU) = 7.74e5; ATP luminescence, replicate 2 (RLU) = 8.18e5. GPHR (Golgi pH Regulator) [DRSC39570] showed ATP z-score, duplicate mean 0.934; ATP luminescence, replicate 1 (RLU) = 4.96e5; ATP luminescence, replicate 2 (RLU) = 5.63e5. With knock-down of Ir75a (Ionotropic receptor 75a) [DRSC10188], the screen gave ATP z-score, duplicate mean 1.05; ATP luminescence, replicate 1 (RLU) = 1.14e6; ATP luminescence, replicate 2 (RLU) = 9.34e5. For Ir75a (Ionotropic receptor 75a) [DRSC39494], the entry reads ATP z-score, duplicate mean 0.705; ATP luminescence, replicate 1 (RLU) = 5.21e5; ATP luminescence, replicate 2 (RLU) = 4.79e5.

Knock-down of Flo2 (Flotillin 2) [DRSC19062] gave: ATP z-score, duplicate mean 1.1; ATP luminescence, replicate 1 (RLU) = 7.85e5; ATP luminescence, replicate 2 (RLU) = 6.53e5. With knock-down of Flo2 (Flotillin 2) [DRSC20244] the results were ATP z-score, duplicate mean -1.12; ATP luminescence, replicate 1 (RLU) = 5.96e5; ATP luminescence, replicate 2 (RLU) = 9.46e5. After knock-down of CG4465 [DRSC15584] the results were ATP z-score, duplicate mean 0.221; ATP luminescence, replicate 1 (RLU) = 3.02e5; ATP luminescence, replicate 2 (RLU) = 8.03e5. CG4465 [DRSC39564] scored ATP z-score, duplicate mean 1.41; ATP luminescence, replicate 1 (RLU) = 5.15e5; ATP luminescence, replicate 2 (RLU) = 6.10e5. CG33296 [DRSC00998] showed ATP z-score, duplicate mean -0.262; ATP luminescence, replicate 1 (RLU) = 6.72e5; ATP luminescence, replicate 2 (RLU) = 7.59e5. CG33296 [DRSC23839] showed ATP z-score, duplicate mean 0.163; ATP luminescence, replicate 1 (RLU) = 8.81e5; ATP luminescence, replicate 2 (RLU) = 8.07e5.

syd (sunday driver) [DRSC10963] showed ATP z-score, duplicate mean -0.475; ATP luminescence, replicate 1 (RLU) = 6.51e5; ATP luminescence, replicate 2 (RLU) = 7.11e5. After knock-down of syd (sunday driver) [DRSC24418], the record shows ATP z-score, duplicate mean 1.19; ATP luminescence, replicate 1 (RLU) = 9.66e5; ATP luminescence, replicate 2 (RLU) = 1.03e6. After knock-down of arr (arrow) [DRSC07451] the results were ATP z-score, duplicate mean -1.83 (active); ATP luminescence, replicate 1 (RLU) = 4.40e5; ATP luminescence, replicate 2 (RLU) = 4.67e5. For arr (arrow) [DRSC27035], the values are ATP z-score, duplicate mean 0.804; ATP luminescence, replicate 1 (RLU) = 7.43e5; ATP luminescence, replicate 2 (RLU) = 8.64e5. Against CG31600 [DRSC30096], the entry reads ATP z-score, duplicate mean 0.233; ATP luminescence, replicate 1 (RLU) = 6.02e5; ATP luminescence, replicate 2 (RLU) = 5.97e5. CG31600 [DRSC39836] scored ATP z-score, duplicate mean -1.15; ATP luminescence, replicate 1 (RLU) = 3.84e5; ATP luminescence, replicate 2 (RLU) = 4.14e5.

With knock-down of gogo (golden goal) [DRSC10070] the results were ATP z-score, duplicate mean 1.81 (active); ATP luminescence, replicate 1 (RLU) = 1.22e6; ATP luminescence, replicate 2 (RLU) = 1.05e6. Against gogo (golden goal) [DRSC10071] the deposit lists ATP z-score, duplicate mean 0.232; ATP luminescence, replicate 1 (RLU) = 7.34e5; ATP luminescence, replicate 2 (RLU) = 8.03e5. For Ctr1C (Copper transporter 1C) [DRSC15089], the entry reads ATP z-score, duplicate mean -1.05; ATP luminescence, replicate 1 (RLU) = 7.07e5; ATP luminescence, replicate 2 (RLU) = 7.53e5. With knock-down of Ctr1C (Copper transporter 1C) [DRSC39456], the screen gave ATP z-score, duplicate mean 0.771; ATP luminescence, replicate 1 (RLU) = 5.47e5; ATP luminescence, replicate 2 (RLU) = 4.63e5. CG7536 [DRSC20050] scored ATP z-score, duplicate mean 0.436; ATP luminescence, replicate 1 (RLU) = 8.26e5; ATP luminescence, replicate 2 (RLU) = 6.78e5. CG7536 [DRSC39596] scored ATP z-score, duplicate mean 1.1; ATP luminescence, replicate 1 (RLU) = 5.28e5; ATP luminescence, replicate 2 (RLU) = 5.53e5.

Reagents listed above with an active call (4):
Or85d (Odorant receptor 85d) [DRSC26656] | ATP z-score, duplicate mean = 2.72 (active); ATP luminescence, replicate 1 (RLU) = 9.07e5; ATP luminescence, replicate 2 (RLU) = 1.04e6
GPHR (Golgi pH Regulator) [DRSC07075] | ATP z-score, duplicate mean = 1.95 (active); ATP luminescence, replicate 1 (RLU) = 7.74e5; ATP luminescence, replicate 2 (RLU) = 8.18e5
arr (arrow) [DRSC07451] | ATP z-score, duplicate mean = -1.83 (active); ATP luminescence, replicate 1 (RLU) = 4.40e5; ATP luminescence, replicate 2 (RLU) = 4.67e5
gogo (golden goal) [DRSC10070] | ATP z-score, duplicate mean = 1.81 (active); ATP luminescence, replicate 1 (RLU) = 1.22e6; ATP luminescence, replicate 2 (RLU) = 1.05e6
